This is an account of results in article PMC12519062.

The target of the test is His12‐CPEB3 [126–169] (mouse) (UniProt Q7TN99). In words: thioflavin T fluorescence + transmission electron microscopy; amyloid fibril formation: 3 mM protein in 50 mM MES pH 5.5 with 3 M Gu-HCl diluted 60-fold into 50 mM MES pH 5.5 (50 uM final), vortexed at 37 °C for 96 h; ThT fluorescence, TEM of the collected aggregates (CD too for the CPEB3 fragment); both purified.

These are yes or no findings as the source states them, for the method shown. Some results given as binding are weak or reduced against the parent protein; the word gives no strength. Where a sequence is shown, tags or fusion partners need not be part of it.

B1: His12‐CPEB3 [126–169] (domain or fragment, UniProt Q7TN99 126-169)
chain: SFFQGITPVNGTMLFQNFPHHVNPVFGGTFSPQIGLAQTQHHQQ
As for B1, the binding result is listed as “binds”.
